doi:10.1101/2025.11.18.689162 (bioRxiv, 2025)
Like-named read-outs stand apart in the source and are kept apart here. No constants are given. Whether binding was seen depends on the method and setting. Binding seen in cells or lysates may run through a third protein. Some binding calls cover weakened binding; strength is not graded here.

Sequences of proteins named here, by UniProt entry; tags and fusion partners are left off. A change or cut given only in a name is not applied to a line headed by its entry. A line that says so, or that is headed by a name, gives the form on record, which may keep a tag or linker.
PDE4D9-mCherry expressed in HEK293T cells (Q08499-10, form named): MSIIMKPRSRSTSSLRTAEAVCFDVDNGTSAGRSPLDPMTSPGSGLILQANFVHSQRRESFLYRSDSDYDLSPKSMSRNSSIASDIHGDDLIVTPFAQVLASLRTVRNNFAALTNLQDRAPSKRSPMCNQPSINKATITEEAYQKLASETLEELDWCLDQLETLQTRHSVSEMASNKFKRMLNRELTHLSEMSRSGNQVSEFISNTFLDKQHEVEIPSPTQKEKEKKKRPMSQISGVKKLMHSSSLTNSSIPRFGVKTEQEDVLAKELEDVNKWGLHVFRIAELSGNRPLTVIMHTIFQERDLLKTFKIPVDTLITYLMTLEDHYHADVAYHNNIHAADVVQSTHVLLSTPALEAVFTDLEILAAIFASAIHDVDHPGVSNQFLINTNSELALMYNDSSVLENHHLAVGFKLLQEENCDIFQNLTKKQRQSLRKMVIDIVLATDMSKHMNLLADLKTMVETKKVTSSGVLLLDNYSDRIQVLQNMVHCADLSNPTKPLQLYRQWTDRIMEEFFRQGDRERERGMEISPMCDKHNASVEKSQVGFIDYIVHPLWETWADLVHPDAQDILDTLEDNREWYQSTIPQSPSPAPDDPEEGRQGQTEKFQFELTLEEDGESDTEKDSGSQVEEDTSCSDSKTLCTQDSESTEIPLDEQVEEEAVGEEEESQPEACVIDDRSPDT
UniProt P48787: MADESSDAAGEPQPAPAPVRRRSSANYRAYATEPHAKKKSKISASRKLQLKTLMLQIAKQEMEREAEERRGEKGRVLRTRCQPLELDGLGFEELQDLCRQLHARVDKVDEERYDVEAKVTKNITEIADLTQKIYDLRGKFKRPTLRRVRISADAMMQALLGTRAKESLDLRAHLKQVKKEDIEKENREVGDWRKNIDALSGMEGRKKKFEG
UniProt P23693: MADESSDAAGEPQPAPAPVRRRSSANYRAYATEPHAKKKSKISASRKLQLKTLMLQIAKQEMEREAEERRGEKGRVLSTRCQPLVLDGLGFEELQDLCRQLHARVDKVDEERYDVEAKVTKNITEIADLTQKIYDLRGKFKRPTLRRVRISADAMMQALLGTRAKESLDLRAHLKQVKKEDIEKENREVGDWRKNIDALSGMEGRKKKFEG

Experiments:
Assay in all cases: co-IP
[1] = biological target: TPNI-CUTie expressed in HEK293T cells (UniProt P19429)
[2] = biological target: cardiac troponin I (TPNI), human, endogenous (human (endogenous in hiPSC-CM and ventricular tissue)) (UniProt P19429)
[3] = biological target: cardiac troponin I (TPNI), human, endogenous (human (endogenous in hiPSC-CM and ventricular tissue)) (UniProt P19429); remark: listed apart in the source
[4] = biological target: PDE4D9-mCherry expressed in HEK293T cells (UniProt Q08499)
[5] = biological target: cardiac troponin I (TPNI), mouse, endogenous (mouse (endogenous in heart)) (UniProt P48787)
[6] = biological target: cardiac troponin I (TPNI), mouse, endogenous (mouse (endogenous in heart)) (UniProt P48787); remark: listed apart in the source
[7] = biological target: cardiac troponin I (TPNI), mouse, endogenous (mouse (endogenous in heart)) (UniProt P48787); remark: listed apart in the source
[8] = biological target: cardiac troponin I (TPNI), rat, endogenous (rat (endogenous in ARVM and NRVM)) (UniProt P23693)

PDE4D9-mCherry expressed in HEK293T cells (from UniProt Q08499-10 1-679) (enzyme)
binding [1]: binds

PDE4D9, human, endogenous (from UniProt Q08499-10 1-679) (enzyme)
binding [2]: binds
binding [3]: binds

TPNI expressed in HEK293T cells (from UniProt P19429 1-210)
binding [4]: binds

B1: PDE4D9, mouse, endogenous (enzyme, mouse (endogenous in heart), UniProt Q01063-2 1-678, looked up)
chain: MSIIMKPRSRSTSSLRTTEAVCFDVDNGTSAGRSPLDPMTSPGSGLILQANFVHSQRRESFLYRSDSDYDLSPKSMSRNSSIASDIHGDDLIVTPFAQVLASLRTVRNNFAALTNLQDRAPSKRSPMCNQPSINKATITEEAYQKLASETLEELDWCLDQLETLQTRHSVSEMASNKFKRMLNRELTHLSEMSRSGNQVSEYISNTFLDKQHEVEIPSPTQKEKEKKKRPMSQISGVKKLMHSSSLTNSCIPRFGVKTEQEDVLAKELEDVNKWGLHVFRIAELSGNRPLTVIMHTIFQERDLLKTFKIPVDTLITYLMTLEDHYHADVAYHNNIHAADVVQSTHVLLSTPALEAVFTDLEILAAIFASAIHDVDHPGVSNQFLINTNSELALMYNDSSVLENHHLAVGFKLLQEENCDIFQNLTKKQRQSLRKMVIDIVLATDMSKHMNLLADLKTMVETKKVTSSGVLLLDNYSDRIQVLQNMVHCADLSNPTKPLQLYRQWTDRIMEEFFRQGDRERERGMEISPMCDKHNASVEKSQVGFIDYIVHPLWETWADLVHPDAQDILDTLEDNREWYQSTIPQSPSPAPDDQEEGRQGQTEKFQFELTLEEDCESDTEKDSGSQVEEDTSCSDSKTLCTQDSESTEIPLDEQVEEEAVAEEESQPETCVPDDCCPDT
binding [5]: binds
binding [6]: binds
binding [7]: binds

B2: PDE4D9, rat, endogenous (enzyme, UniProt P14270-6 1-678)
chain: MSIIMKPRSRSTSSLRTTEAVCFDVDNGTSAGRSPLDPMTSPGSGLILQANFVHSQRRESFLYRSDSDYDLSPKSMSRNSSIASDIHGDDLIVTPFAQVLASLRTVRNNFAALTNLQDRAPSKRSPMCNQPSINKATITEEAYQKLASETLEELDWCLDQLETLQTRHSVSEMASNKFKRMLNRELTHLSEMSRSGNQVSEYISNTFLDKQHEVEIPSPTQKEKEKKKRPMSQISGVKKLMHSSSLTNSCIPRFGVKTEQEDVLAKELEDVNKWGLHVFRIAELSGNRPLTVIMHTIFQERDLLKTFKIPVDTLITYLMTLEDHYHADVAYHNNIHAADVVQSTHVLLSTPALEAVFTDLEILAAIFASAIHDVDHPGVSNQFLINTNSELALMYNDSSVLENHHLAVGFKLLQEENCDIFQNLTKKQRQSLRKMAIDIVLATDMSKHMNLLADLKTMVETKKVTSSGVLLLDNYSDRIQVLQNMVHCADLSNPTKPLQLYRQWTDRIMEEFFRQGDRERERGMEISPMCDKHNASVEKSQVGFIDYIVHPLWETWADLVHPDAQDILDTLEDNREWYQSTIPQSPSPAPDDQEDGRQGQTEKFQFELTLEEDGESDTEKDSGSQVEEDTSCSDSKTLCTQDSESTEIPLDEQVEEEAVAEEESQPQTGVADDCCPDT
binding [8]: binds
